We go through one molecule from article PMC10432976.

Results are given in words; binding and its absence hold for the method and conditions named. Binding seen in cells or lysates may run through a third protein. Sequences can lack the tags named with a protein.

In the test the target is HA-tagged LRR domain of LRRFIP2. Kind of test: co-IP; HA-tagged LRR domains and Flag-TRB3 coexpressed in HepG2 cells; HA immunoprecipitation, Western blot for Flag-TRB3; without or with LPS 10 ng/ml for 30 min. In general terms: Immunoblotting shows a protein as a band on a membrane.

B1: Flag-TRB3 (coexpressed in HepG2 cells) (protein, UniProt Q8K4K2 1-354)
chain: MRATPLAASADVSCRKKPLEFDDNIDAKCPVLKRVRDEPEPGPLPSLLPPSPPPASDLSPAVAPATRLGPYILLEREQGSCSYRALHCPTGTEYTCKVYPASEAQAVLAPYARLPTHQHVARPTEVLLGSRLLYIFFTKTHGDLHSLVRSRRGIPESEAAGLFRQMASAVAHCHKHGLVLRDLKLRRFVFSNCERTKLVLENLEDACVMTGSDDSLWDKHACPAYVGPEILSSRPSYSGKAADVWSLGVALFTMLAGRYPFHDSEPVLLFGKIRRGTFALPEGLSAPARCLIRCLLRKEPSERLVALGILLHPWLREDHGRVSPPQSDRREMDQVVPDGPQLEEAEEGEVGLYG
For the molecule B1, the binding entry was “no binding”.
